# From PMC7949122 (The Journal of Biological Chemistry, 2021)
# Biological target: T1, B1R^Flag-VC (human) (UniProt P46663)
# T1 sequence: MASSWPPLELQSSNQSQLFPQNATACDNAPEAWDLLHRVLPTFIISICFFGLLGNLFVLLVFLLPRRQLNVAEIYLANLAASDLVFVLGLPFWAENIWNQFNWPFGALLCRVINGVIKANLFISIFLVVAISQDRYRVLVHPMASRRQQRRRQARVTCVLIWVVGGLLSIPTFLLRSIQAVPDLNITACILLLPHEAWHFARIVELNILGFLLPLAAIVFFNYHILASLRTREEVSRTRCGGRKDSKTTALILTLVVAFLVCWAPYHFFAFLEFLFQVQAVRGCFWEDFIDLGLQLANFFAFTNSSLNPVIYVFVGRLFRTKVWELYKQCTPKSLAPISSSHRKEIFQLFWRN
# Assay: split reporter; BiFC with split Venus (VN amino acids 1-210, VC amino acids 210-238) in cotransfected HeLa cells grown 24 h, fixed, confocal microscopy
substance,measurement,value
VN-AltB2R^HA (human),binding,no binding

# No constants are given. Whether binding was seen depends on the method and setting. Binding seen in cells or lysates may run through a third protein. Tags and fused reporters may be left off the sequences shown.
